Measurements: patent publication US20030124568A1
These are yes or no findings as the source states them, for the method shown. Some binding calls cover weakened binding; strength is not graded here.

Amino acid sequences for entries named in this document (tags omitted). A change or cut given only in a name is not applied to a line headed by its entry.
UniProt P63251: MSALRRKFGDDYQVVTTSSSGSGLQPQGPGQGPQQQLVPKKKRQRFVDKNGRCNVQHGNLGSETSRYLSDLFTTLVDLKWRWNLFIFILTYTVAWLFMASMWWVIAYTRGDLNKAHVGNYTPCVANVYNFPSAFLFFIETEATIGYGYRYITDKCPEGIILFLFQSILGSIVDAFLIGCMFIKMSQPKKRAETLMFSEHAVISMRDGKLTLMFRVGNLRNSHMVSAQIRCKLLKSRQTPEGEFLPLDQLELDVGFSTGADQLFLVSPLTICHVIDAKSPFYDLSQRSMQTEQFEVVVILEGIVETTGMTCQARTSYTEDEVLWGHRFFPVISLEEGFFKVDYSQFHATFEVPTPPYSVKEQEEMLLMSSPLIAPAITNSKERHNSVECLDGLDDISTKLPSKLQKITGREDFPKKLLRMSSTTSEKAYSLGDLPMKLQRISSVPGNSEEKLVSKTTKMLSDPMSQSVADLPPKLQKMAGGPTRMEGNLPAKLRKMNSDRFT

How the values were obtained:
[1] = target: T1, GIRK1-NC-bait (GAL4-DNA binding domain fused to the N terminus of the GIRK1 subunit, a linker sequence GSSGSS and the C terminus of GIRK1) (rat) (UniProt P04386+P63251); assay: yeast two-hybrid library screen in Y190 with GIRK1-NC-bait
[2] = target: T1, GIRK1-NC-bait (GAL4-DNA binding domain fused to the N terminus of the GIRK1 subunit, a linker sequence GSSGSS and the C terminus of GIRK1) (rat); assay: yeast two-hybrid cotransformation in Y190
[3] = target: T1, GIRK1-NC-bait (GAL4-DNA binding domain fused to the N terminus of the GIRK1 subunit, a linker sequence GSSGSS and the C terminus of GIRK1) (rat); assay: yeast two-hybrid cotransformation

B1: GIRK1NCprey3 (nucleotides 500-1193 of SEQ ID NO: 1, fragment of rat Mogli, in pPC86) (protein)
chain: RIGMVGEGNIQSARYKKESKGGIIKPGSEADFSSSSSTGSISAPEVHMSTTGNKRASFSRNRGPHGRSNGAPSHKSGSSPPSPREKDLVSMLCRNPLSPSNIHPSYAPSSPSSSNSGSYKGSDCSPVMRRSGRYMSCGENHGVKPPNPEQYLTPLQQKEVTVRHLRTKLKESERRLHERESEIMELKSQLARMREDWIEEECHRVEAQLALKEARKEIKQLKQVIETMRS
binding [1]: binds | binding [2]: binds

B2: GIRK1NCprey2 (nucleotides 1011-1349 of SEQ ID NO: 1, fragment of rat Mogli, in pPC86) (protein)
chain: ESERRLHERESEIMELKSQLARMREDWIEEECHRVEAQLALKEARKEIKQLKQVIETMRSSLADKDKGIQKYFVDINIQNKKLESLLQSMEMAHNSSLRDELCLDFSFDSPE
binding [1]: binds | binding [2]: binds

B3: charged domain of the Mogli protein (SEQ ID NO: 6; amino acids 237-395 in SEQ ID NO: 2) cloned into pPC86 (protein, not shown: small tags and cut ends)
chain: GSYKGSDCSPVMRRSGRYMSCGENHGVKPPNPEQYLTPLQQKEVTVRHLRTKLKESERRLHERESEIMELKSQLARMREDWIEEECHRVEAQLALKEARKEIKQLKQVIETMRSSLADKDKGIQKYFVDINIQNKKLESLLQSMEMAHNSSLRDELCLD
binding [3]: binds | binding [2]: binds
